Consider one molecule from patent US20020098516A1.

Protein sequences, listed by entry. Tags and fused reporters are not part of them. Lines headed by an entry give the natural chain unless they say otherwise; changes in a name come on top.
UniProt P02463: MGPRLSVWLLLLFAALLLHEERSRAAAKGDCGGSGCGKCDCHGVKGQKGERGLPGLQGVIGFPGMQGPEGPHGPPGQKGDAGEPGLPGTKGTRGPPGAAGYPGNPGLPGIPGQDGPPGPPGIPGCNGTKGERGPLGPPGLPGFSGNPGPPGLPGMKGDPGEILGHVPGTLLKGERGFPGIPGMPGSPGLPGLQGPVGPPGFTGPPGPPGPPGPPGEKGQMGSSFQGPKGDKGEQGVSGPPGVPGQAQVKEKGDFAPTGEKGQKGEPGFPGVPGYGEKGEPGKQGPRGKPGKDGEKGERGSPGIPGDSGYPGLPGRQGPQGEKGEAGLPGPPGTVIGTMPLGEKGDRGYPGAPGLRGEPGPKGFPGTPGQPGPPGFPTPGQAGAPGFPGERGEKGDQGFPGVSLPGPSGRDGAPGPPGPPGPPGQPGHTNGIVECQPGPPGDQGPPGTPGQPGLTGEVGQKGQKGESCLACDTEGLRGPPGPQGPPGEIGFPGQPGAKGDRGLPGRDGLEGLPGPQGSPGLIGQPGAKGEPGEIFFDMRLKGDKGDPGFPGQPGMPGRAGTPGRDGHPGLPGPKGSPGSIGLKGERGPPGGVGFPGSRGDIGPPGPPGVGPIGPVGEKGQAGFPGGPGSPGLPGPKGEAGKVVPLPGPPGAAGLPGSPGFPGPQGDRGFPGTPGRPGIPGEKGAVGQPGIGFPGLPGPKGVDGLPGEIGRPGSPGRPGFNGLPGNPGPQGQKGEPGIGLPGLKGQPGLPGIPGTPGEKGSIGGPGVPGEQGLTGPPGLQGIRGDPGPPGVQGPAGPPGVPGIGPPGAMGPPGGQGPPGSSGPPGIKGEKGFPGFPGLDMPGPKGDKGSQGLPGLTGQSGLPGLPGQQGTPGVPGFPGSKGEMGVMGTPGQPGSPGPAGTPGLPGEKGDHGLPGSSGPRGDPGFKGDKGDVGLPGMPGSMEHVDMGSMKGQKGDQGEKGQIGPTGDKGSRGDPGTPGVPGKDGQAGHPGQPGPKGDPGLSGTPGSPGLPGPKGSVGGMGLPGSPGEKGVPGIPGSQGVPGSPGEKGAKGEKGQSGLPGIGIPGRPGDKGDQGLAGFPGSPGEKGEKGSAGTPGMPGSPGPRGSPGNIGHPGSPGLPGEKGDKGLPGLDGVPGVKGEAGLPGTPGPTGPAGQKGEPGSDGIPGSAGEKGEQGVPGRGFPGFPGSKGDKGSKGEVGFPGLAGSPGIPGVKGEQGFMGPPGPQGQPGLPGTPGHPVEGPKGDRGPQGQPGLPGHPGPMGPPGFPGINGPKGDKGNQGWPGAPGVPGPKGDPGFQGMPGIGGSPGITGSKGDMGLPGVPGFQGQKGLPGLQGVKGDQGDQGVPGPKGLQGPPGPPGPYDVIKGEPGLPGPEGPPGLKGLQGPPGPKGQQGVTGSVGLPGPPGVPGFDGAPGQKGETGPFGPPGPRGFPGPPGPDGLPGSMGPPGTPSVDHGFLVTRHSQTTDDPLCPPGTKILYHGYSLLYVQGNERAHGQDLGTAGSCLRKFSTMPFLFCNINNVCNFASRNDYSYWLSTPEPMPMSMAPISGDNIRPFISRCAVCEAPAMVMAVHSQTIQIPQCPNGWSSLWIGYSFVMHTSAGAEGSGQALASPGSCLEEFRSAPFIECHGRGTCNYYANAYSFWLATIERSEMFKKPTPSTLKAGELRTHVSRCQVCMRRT
UniProt P08122: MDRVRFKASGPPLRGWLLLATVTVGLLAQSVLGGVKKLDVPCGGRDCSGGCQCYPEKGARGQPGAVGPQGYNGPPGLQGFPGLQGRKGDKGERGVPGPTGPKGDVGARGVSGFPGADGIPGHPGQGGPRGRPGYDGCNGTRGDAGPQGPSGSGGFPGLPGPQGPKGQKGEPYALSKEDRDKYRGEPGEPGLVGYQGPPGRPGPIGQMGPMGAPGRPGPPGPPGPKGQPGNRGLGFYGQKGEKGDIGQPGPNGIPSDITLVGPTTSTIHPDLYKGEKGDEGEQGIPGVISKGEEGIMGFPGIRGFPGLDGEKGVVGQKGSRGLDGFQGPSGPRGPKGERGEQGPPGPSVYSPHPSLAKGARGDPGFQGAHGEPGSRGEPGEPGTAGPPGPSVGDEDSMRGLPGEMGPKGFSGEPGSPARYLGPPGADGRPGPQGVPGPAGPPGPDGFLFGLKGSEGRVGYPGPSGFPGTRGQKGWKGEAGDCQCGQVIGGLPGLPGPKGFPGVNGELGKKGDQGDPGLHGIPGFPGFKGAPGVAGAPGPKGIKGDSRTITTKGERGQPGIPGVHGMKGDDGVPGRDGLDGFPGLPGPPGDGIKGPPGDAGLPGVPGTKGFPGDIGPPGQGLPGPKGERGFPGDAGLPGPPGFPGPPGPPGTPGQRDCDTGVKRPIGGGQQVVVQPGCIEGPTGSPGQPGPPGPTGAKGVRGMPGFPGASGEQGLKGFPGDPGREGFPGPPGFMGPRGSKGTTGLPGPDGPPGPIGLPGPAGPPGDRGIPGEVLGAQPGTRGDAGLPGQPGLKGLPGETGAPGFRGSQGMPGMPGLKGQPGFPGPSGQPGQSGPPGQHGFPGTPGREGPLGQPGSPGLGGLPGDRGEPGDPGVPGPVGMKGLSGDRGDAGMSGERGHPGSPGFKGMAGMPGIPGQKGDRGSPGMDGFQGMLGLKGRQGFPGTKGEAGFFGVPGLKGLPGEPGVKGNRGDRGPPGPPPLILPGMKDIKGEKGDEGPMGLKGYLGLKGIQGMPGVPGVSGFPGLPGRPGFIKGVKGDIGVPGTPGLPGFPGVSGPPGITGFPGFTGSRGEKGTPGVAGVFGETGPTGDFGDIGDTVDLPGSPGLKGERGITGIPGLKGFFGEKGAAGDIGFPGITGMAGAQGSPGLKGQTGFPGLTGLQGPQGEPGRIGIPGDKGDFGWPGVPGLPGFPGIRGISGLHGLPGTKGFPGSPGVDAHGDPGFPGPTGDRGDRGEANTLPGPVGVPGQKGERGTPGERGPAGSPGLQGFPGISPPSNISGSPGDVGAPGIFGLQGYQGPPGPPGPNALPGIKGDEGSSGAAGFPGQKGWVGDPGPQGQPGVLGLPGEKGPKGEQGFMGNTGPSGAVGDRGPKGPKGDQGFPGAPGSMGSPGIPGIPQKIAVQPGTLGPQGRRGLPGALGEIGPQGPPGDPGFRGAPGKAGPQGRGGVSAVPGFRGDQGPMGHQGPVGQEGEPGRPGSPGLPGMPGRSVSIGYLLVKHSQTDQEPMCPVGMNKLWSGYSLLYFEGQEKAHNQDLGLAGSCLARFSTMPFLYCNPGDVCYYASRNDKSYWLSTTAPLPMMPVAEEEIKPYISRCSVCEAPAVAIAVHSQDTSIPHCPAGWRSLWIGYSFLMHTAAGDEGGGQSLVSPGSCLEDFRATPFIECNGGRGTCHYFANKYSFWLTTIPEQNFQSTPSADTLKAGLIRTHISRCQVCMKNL

The assay addresses type IV collagen (murine, α1(IV) and α2(IV) chains, from tissue matrix extracts) (murine) (UniProt P02463+P08122). Briefly: direct immunoprecipitation of tissue extracts with anti-collagen α1(IV) antibodies, western blot with antibody 2. (A western blot detects proteins with antibodies after separation by electrophoresis.)

No constants are given. Whether binding was seen depends on the method and setting. Some binding calls cover weakened binding; strength is not graded here.

B1: usherin protein (mouse, native, from tissue extracts) (protein, UniProt Q2QI47-2 35-1461, looked up)
chain: VFPRLENVGAFRKVSTVPTHATCGFPGPSTFCRSPVAAEHVQLCTERLCIQDCPYRSASPLYTALLEGLRSCIPADDGDLHPYSRSSSVSFMFGSHQNCPSLRAPRLAAELTLAVWLKLEQGGTMCVIEKTVDGQIVFKVTISEKETMFYYRTVNGLQPPIKVMTPGRILMKKWIHLTVQVHQTAISFFVDGLEENSTAFDTRTLHDSVTDSVSSVIQVGQSLNGSEQFVGRMQDFRLYNVSLTNREILEVFSGDFPHLHIQPHCRCPGSHPRVHPSVQQYCIPNGAGDTPEHRMSRLNPEAHPLSFINDDDVATSWISHVFTNITQLYEGVAISIDLENGQYQVLKVITQFSSLQPVAIRIQRKKADSSPWEDWQYFARNCSVWGMKDNEDLENPNSVNCLQLPDFIPFSHGNVTFDLLTSGQKHRPGYNDFYNSSVLQEFMRATQIRLHFHGQYYPAGHTVDWRHQYYAVDEIIVSGRCQCHGHAETCDRTRRPYRCLCSPHSFTEGPQCDRCSPLYNDKPFRSGDNVNAFNCKPCQCHGHASSCHYDASVDPFPLEHNRGGGGVCDDCQHHTTGRHCESCQDYFYRPVGADPAAPDACKLCDCNRAGTRNGSLHCDPIGGQCDCKRRVSGRQCLQCQDGFYDLQALDPDGCRPCNCNPSGTVDGDITCHQNSGQCSCKANVIGLRCNRCNFGFKFLQSFNGDGCEPCQCNLHGSVNQLCDPLSGQCACKKEAKGLKCDSCRENFYGLPWSACEVCDCSKAGSQPGTVCDTETGQCVCKPNVGGRQCSQCKAGYFNLYQNDSHLCLTCNCEKMGTVNGSLRCDKSTGQCPCKLGVTGLRCHQCKPHRFNLTMDNPQGCQACDCDSLGTLPGSMCDPISGQCLCLPHRQGRRCEQCQPGFYSSPSNATGCLPCLCHTAGAVSHICNSVTGQCSCHDPSTTGRSCHQCQESYFRFDPLTGRCRPCHCHVAGASNGTCDAVTGQCFCKEFVTGSKCDTCVPGASHLDVNNLLGCSKTPSQQPPPRGWVQSSSTINVSWSPPECPNAHWLTYTLFRNGSEIYTTEDEHPYYTQYFLDTSLSPHTAYSYYIETSNVHSSTRSIPVIYETKPEVSEGHLNLTHIIPVGSDSITLTWTGLSNSSDPVAKYVLSCTPVDSTEPCVSYEGPETSATIWNLVPFTQYCFSVQGCTNESCFYSLPIIVTTAQAPPQTQGPPTVWKISPTELRIEWSPPVDSNGIIISYELYMRRWLSTEESLVFESHGLVSSHSALQSVNPSKNLLQQPQASTFISGLEPHTEYAFRVLAVNMAGRVSSAWASERTGESVPVFMAPPSVSPLSPHSLSVSWEKPAENFTRGEIIGYKISMVSEHFPLHDVPVMCSKMVHFAKSQDQSYIVRGLEPYRTYSFTVSLCDSVGCVTSALGSGQTLAAGK
Regarding B1, the binding result was “binds”.
